Measured values as given in publication PMC9307952, “Lipoate protein ligase B primarily recognizes the C8-phosphopantetheine arm of its donor substrate and weakly binds the acyl carrier protein” (The Journal of Biological Chemistry, 2022).
These are yes or no findings as the source states them, for the method shown. Some entries that bind do so weakly or less than the wild type.

Protein sequences, listed by entry. Tags and fused reporters are not part of them. Residues count along the entry.
UniProt P0A6A8, residues 2-78: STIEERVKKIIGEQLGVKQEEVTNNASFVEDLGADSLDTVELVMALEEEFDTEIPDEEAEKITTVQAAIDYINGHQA

Molecular target: 15N-labeled E. coli apo-ACP (unmodified acyl carrier protein), NMR sample (E. coli) (UniProt P0A6A8)
Assay: NMR titration; 15N-labeled ACP (0.3 to 0.4 mM) titrated with unlabeled LipBK135A/C169A, 0.25 to 2 molar equivalents; 1H15N TROSY-HSQC; 50 mM Tris, 200 mM NaCl, pH 7.8; both purified

B1: E. coli LipBK135A/C169A (catalytically inactive double mutant of lipoate protein ligase B) (enzyme, UniProt P60720 1-213)
chain: MYQDKILVRQLGLQPYEPISQAMHEFTDTRDDSTLDEIWLVEHYPVFTQGQAGKAEHILMPGDIPVIQSDRGGQVTYHGPGQQVMYVLLNLKRRKLGVRELVTLLEQTVVNTLAELGIEAHPRADAPGVYVGEKAICSLGLRIRRGCSFHGLALNVNMDLSPFLRINPAGYAGMEMAKISQWKPEATTNNIAPRLLENILALLNNPDFEYITA
- binding: binds weakly
